Results are given in words; binding and its absence hold for the method and conditions named. Binding seen in cells or lysates may run through a third protein. Some entries that bind do so weakly or less than the wild type. For part of these data: Sequences can lack the tags named with a protein.
Assays:
[1] = molecular target: T1, Recombinant human Robo1 encoding the extracellular five Ig-like domains fused with the Fc domains of human IgG1 (human) (UniProt Q9Y6N7+P01857); experiment: Protein A bead pulldown with Robo1-Fc, immunoblot (FIG. 15F)
[2] = molecular target: T1, Recombinant human Robo1 encoding the extracellular five Ig-like domains fused with the Fc domains of human IgG1 (human); experiment: Protein A bead pulldown, immunoblot for His
[3] = molecular target: T1, Recombinant human Robo1 encoding the extracellular five Ig-like domains fused with the Fc domains of human IgG1 (human); experiment: Protein A bead pulldown with Robo1-Fc, immunoblot (FIG. 15E)
[4] = molecular target: T2, Extracellular Ig3 domain of Robo1 fused with GST (human) (UniProt Q9Y6N7); experiment: glutathione-Sepharose pulldown with GST-Ig1-5, immunoblot (FIG. 15G)
T2 sequence (looked up): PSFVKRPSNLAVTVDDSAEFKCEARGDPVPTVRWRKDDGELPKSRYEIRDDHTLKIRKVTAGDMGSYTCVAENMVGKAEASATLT

Sequences of proteins named here, by UniProt entry; tags and fusion partners are left off. A change or cut given only in a name is not applied to a line headed by its entry.
UniProt Q2MKA7: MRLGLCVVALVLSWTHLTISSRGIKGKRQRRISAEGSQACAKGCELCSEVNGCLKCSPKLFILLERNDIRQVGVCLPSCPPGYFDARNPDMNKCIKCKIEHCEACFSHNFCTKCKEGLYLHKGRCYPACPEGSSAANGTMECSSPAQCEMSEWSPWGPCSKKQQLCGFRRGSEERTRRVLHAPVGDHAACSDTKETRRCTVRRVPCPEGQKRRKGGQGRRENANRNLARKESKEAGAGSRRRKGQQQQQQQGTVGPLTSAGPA

[5] = molecular target: T3, Extracellular Ig4 domain of Robo1 fused with GST (human) (UniProt Q9Y6N7); experiment: as above
T3 sequence (looked up): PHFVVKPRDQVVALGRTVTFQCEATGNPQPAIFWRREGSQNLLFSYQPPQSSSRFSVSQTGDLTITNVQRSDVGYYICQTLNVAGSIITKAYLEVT

[6] = molecular target: T1, Recombinant human Robo1 encoding the extracellular five Ig-like domains fused with the Fc domains of human IgG1 (human); experiment: Protein A bead pulldown with Robo1-Fc, rSlit2 and/or rRspo1, immunoblot (FIG. 18B)
[7] = molecular target: T2, Extracellular Ig3 domain of Robo1 fused with GST (human); experiment: glutathione-Sepharose pulldown, immunoblot
[8] = molecular target: T3, Extracellular Ig4 domain of Robo1 fused with GST (human); experiment: glutathione-Sepharose pulldown, immunoblot

binding [1] | binding [2] | binding [3] | binding [4] | binding [5] | binding [6] | binding [7] | binding [8] | Substance
binds | binds |  |  |  |  |  |  | Amino-terminal segment of Rspo1 including two furin-like cysteine-rich domains, fused with 6-His tag (from UniProt Q2MKA7 21-146) (ligand)
 | binds | binds | binds | binds | binds | binds | binds | Recombinant human Rspo1 fused with 6-His (His) tag expressed in Sf9 insect cells (from UniProt Q2MKA7 21-263) (ligand)
